## Primary screen of a compound library

From ChEMBL document CHEMBL3988442, “University of Dundee, Small-Polar-MMV Screening Library” (2021).

The filed quantity is “Percent Effect” (%). How 0% and 100% were set is not recorded. Most values in the screen are low, and negative values occur. This is an unselected part of the compounds tested. A dash means the value is not listed here; it may have been measured.

Mtb growth Cornell: 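Whole-cell assay for inhibitors of Mycobacterium tuberculosis growth, labelled Cornell in the record; the read-out is not stated. The concentration is filed as 10 mM, unlikely as a test dose, so the dose is not known. Higher means stronger inhibition (inferred from two other growth screens of the library). Size under these conditions: about 53,000 compounds, about 900 of them at 50% or above in at least one test.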
Mtb heat-shock: 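Assay on Mycobacterium tuberculosis, filed only as a heat shock assay from Cornell; the read-out is not stated. The concentration is filed as 10 mM, unlikely as a test dose, so the dose is not known. The record gives no direction; compounds that gave an IC50 in retests scored well above the rest, so higher reads as stronger inhibition. Of about 69,000 compounds tested this way, about 930 (1.4%) reached 50% or more in at least one test.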

| Compound | Mtb growth Cornell | Mtb heat-shock |
|---|---|---|
| `Cc1csc2nc3n(c(=O)c12)CCN(Cc1c[nH]cn1)CC3.Cl` | -9.915 | -1.949 |
| `CC(C)CC(NC(=O)CSCC(N)=O)c1cccs1` (centres undefined) | - | -19.96 |
| `Nc1no[n+]([O-])c1C(=O)NCc1ccccn1` | -59.59 | 3.262 |
| `Cc1nsc(N2CCN(C(=O)Nc3cccc(C#N)c3)CC2)n1` | 49.31 | -15.3 |
| `O=C(O)C(F)(F)F.O=C(O)C(F)(F)F.c1ccc(CN2CCc3nnc(CN4CCCCC4)n3CC2)nc1` | -3.482 | -4.25 |
| `CN(Cc1cnn(C)c1)C(=O)NCC1CCS(=O)(=O)C1` (centres undefined) | 11.51 | -9.046 |
| `CCn1c(NCc2ccc(OC)cc2)nc2c(C)nn(C)c2c1=O` | - | 22.02 |
| `O=C(O)C(F)(F)F.O=C(c1cccnc1)N1CCC2(CC1)CCN(c1ccsc1)C2=O` | -4.971 | -9.697 |
| `Cn1nc2c(c1NC(=O)c1ccc(Cl)s1)CCC2` | 24.33 | 24.03 |
| `CN(C1CCN(c2ccccn2)CC1)S(=O)(=O)c1cccc(F)c1` | 21.41 | -22.87 |
| `Cc1ccc(C(=O)N2CCC3(CC2)CC(c2ccccc2)C(=O)N3)cn1.O=C(O)C(F)(F)F` (centres undefined) | -8.15 | -0.3045 |
| `[H][C@@]12CN(CCOC)C[C@]1([H])[C@H](OC)CCN2Cc1ccc(C)o1` | 28.15 | -8.155 |
| `CCCc1noc(CCC(=O)N2CCN(C)CC2c2ccccc2)n1` (centres undefined) | 34.32 | -16.03 |
| `N#CCCN(Cc1ccccn1)Cn1cc(Cl)cn1` | -44.89 | -7.463 |
| `CN1CCN(C(CNC(=O)c2ccc(Cl)cc2F)c2cccs2)CC1` (centres undefined) | -6.268 | -25.18 |
| `O=C(O)c1ccc(OC2CCOCC2)cc1` | -27.02 | 12.48 |
| `COc1ccccc1CC(=O)NC(C)c1nc2cccnc2n1C(C)C` (centres undefined) | -9.677 | -20.28 |
| `Cn1cc(N2CC3(CCN(Cc4nccn4C)C3)CC2=O)cn1.O=C(O)C(F)(F)F` (centres undefined) | -31.02 | 3.565 |
| `O=C(CO)N1CCCC(N2CCN(c3ccccc3F)CC2)C1` (centres undefined) | 20.64 | -15.89 |
| `CC(C)N1CCOCC2(CN(Cc3cccs3)CCO2)C1.O=C(O)C(F)(F)F.O=C(O)C(F)(F)F` (centres undefined) | 22.16 | -21.11 |
| `O=C(Cc1ccccc1C(F)(F)F)N1CCC2(CC1)[C@H](O)C[C@@H]2O` | 5.956 | 2.333 |
| `COCc1ncc(CN2CCC3(CCNC(=O)CC3)CC2)cn1` | 18.36 | -0.6842 |
| `O=C(c1cccnc1-n1cncn1)N1CCC(Nc2ccccc2)CC1` | -3.664 | -13.11 |
| `O=S1(=O)NC2(CCCN(CCc3ccccc3)C2)COc2ccccc21` (centres undefined) | - | -33 |
| `CCNC(=O)N(C)C1CCCc2nc(C)sc21` (centres undefined) | - | 23.29 |
| `CC(C#N)CNC(=O)Nc1ccc(Br)cc1` (centres undefined) | 36.33 | -3.761 |
| `O=C(O)C(F)(F)F.O=S(=O)(NC1CCC12CCN(CC1CC1)CC2)c1ccccc1` (centres undefined) | 10.23 | -13.63 |
| `COCCOCC(=O)Nc1cc(C)ccc1F` | 20.89 | 14.03 |
| `Cc1cc(C)n(CC2CCCN2C(=O)c2cc[nH]n2)n1` (centres undefined) | - | -3.828 |
| `Cc1c(C2CCCN(C(=O)c3ccncc3)C2)n2c(nc1=O)CCC2.Cl` (centres undefined) | -9.907 | -13.79 |
| `CC1CS(=O)(=O)CCN1Cc1ccccc1OCC(F)(F)F` (centres undefined) | - | -19.33 |
| `[H][C@]12CN(CC3CC3)C(=O)[C@@]1([H])CN(S(=O)(=O)CC)C2` | -29.96 | 36.08 |
| `CN(C)S(=O)(=O)c1ccc2c(c1)N(Cc1nccn1C)CCC2` | - | -7.807 |
| `COc1ccc2c(c1)OCC(CNC(=O)c1ccc3[nH]nnc3c1)C2` (centres undefined) | 10.65 | -2.248 |
| `Cc1ccc(N(C)C2CCN(C(=O)c3ccsc3)CC2)nn1` | -7.165 | 0.1286 |
| `O=C(c1cscn1)N1CCC2(CCN(S(=O)(=O)c3ccccc3)C2)C1` (centres undefined) | -30.7 | 15.58 |
| `Cc1nc(N(C)C)nc(N(C)CCc2ccncc2)c1C` | 27.75 | -39.86 |
| `CSC(C)C(=O)Nc1ccnn1-c1ccccc1C` (centres undefined) | 7.328 | -12.01 |
| `CN1CCN(C(=O)c2cnc3c(cnn3C3CCCC3)c2)CC1` | 24.37 | 6.68 |
| `COc1cc2nc(NCc3ccc(C)nc3)nc(N)c2cc1OC` | 50.73 | 12.99 |
| `CN(C)CCNc1cc(-c2ccc[nH]c2=O)c2cc[nH]c2n1` | -10.93 | 12.01 |
| `Cl.c1nnc(Nc2cncc(C3CCCN3)n2)s1` (centres undefined) | 12.3 | 104.6 |
| `COc1ccc(-c2noc(CN3CCN(c4cnccn4)CC3)n2)cc1` | 35.74 | 11.96 |
| `CNc1nccnc1C1CN(C(=O)c2c[nH]cn2)CCO1` (centres undefined) | 2.222 | -2.812 |
| `Cn1cc(CN2CCCn3cnc(COCC4CC4)c3C2)cn1` | 21.36 | 12.3 |
| `O=C(O)C(F)(F)F.[H][C@]12CN(CCN(C)C)C(=O)[C@@]1([H])CN(S(=O)(=O)c1cccs1)C2` | - | 1.72 |
| `CC(C)SCc1cccc(NC2CCN(C)C2=O)c1` (centres undefined) | 4.287 | -8.124 |
| `CC(C)C(O)CNC(=O)Nc1ccc(F)c(Cl)c1` (centres undefined) | 19.44 | -4.675 |
| `O=C(CN1CCCCCC1)NCCSc1cnn[nH]1` | - | 47.79 |
| `C/C=C(/C)C(=O)NS(=O)(=O)c1ccc(C(F)(F)F)cc1` | 28.87 | -13.33 |
| `C[C@@H]1CN(C(=O)c2cc(Cn3ccc4ccccc43)[nH]n2)C[C@H](C)O1` | 12.28 | -6.741 |
| `CC(C)OCCN1CCN(c2ccc(Cl)cn2)CC1` | 7.587 | -4.906 |
| `CNC(=O)C1CN(C(=O)c2cccnc2)CCN(S(C)(=O)=O)C1` (centres undefined) | 3.821 | 1.387 |
| `CCC(CN1CCOCC1)n1cncc1-c1ccc2c(c1)CCN2CC.Cl` (centres undefined) | 11.86 | 100.9 |
| `N#Cc1c(Cl)nsc1NCc1cccnc1OCC(F)(F)F` | 34.09 | 12.49 |
| `CN(C)C(=O)c1cn2cc(-c3ccccc3Cl)n(CC3CC3)c(=O)c2n1` | 8.491 | 22.72 |
| `CSc1ccc(C(=O)N2CC(=O)N(CC(C)(C)C)CC(O)C2)cc1` (centres undefined) | -3.923 | 67.49 |
| `O=C(Cc1ccc(F)cc1)NCCNS(=O)(=O)C1CCCC1` | 13.78 | 22.29 |
| `O=C(NCc1ccc(Br)cc1)NCC1CCOC1` (centres undefined) | 5.513 | 13.42 |
| `N#CC1C(=O)Nc2c(cnn2C2CCCC2)C12CCCCC2` (centres undefined) | - | 8.364 |
| `CC(O)CN(c1ccccc1)S(=O)(=O)c1cc(C(=O)O)cc2c1CCC2` (centres undefined) | 6.914 | 15.12 |
| `[H][C@@]12CCN(S(=O)(=O)C3CC3)[C@]1([H])CC[C@H](c1nc(C)no1)O2` | -23.57 | -18.78 |
| `CCc1nc(CN2CCCN(C(=O)c3cc(C)on3)CC2)cs1` | 14.66 | -4.727 |
| `CCOCC(=O)NCCn1ccc(-c2ccccn2)n1` | - | -7.914 |
| `Cc1cc(C)nc(N2CCC(c3c(C(N)=O)sc4ccccc34)C2)n1` (centres undefined) | -0.55 | -2.448 |
| `OC(CN(Cc1ccccc1)Cc1ccccn1)c1cccs1` (centres undefined) | 17.17 | 66.35 |
| `CC(=O)Nc1nc2c(s1)C1(CCN(C)CC1)Nc1ccccc1S2` | -15.56 | -9.851 |
| `Cc1nc(NCC2CC2)nc2c1COCC21CCN(C(=O)C(C)(C)C)C1` (centres undefined) | 15.78 | 5.353 |
| `COCc1cc(N(C)Cc2ccccn2)nc(C(C)(C)C)n1` | 35.37 | -17.3 |
| `O=C1CCC2(CCOC2)CN1Cc1nncn1CCc1ccccc1` (centres undefined) | - | 1.898 |
| `CC(C)c1noc(CN(Cc2cccs2)C2CC2)n1` | -29.62 | 0.3233 |
| `Cc1ccc(N2CCC3(CCC(=O)N3Cc3ccncc3)CC2)nn1.O=C(O)C(F)(F)F` | 10.02 | 25.94 |
| `Cc1ccc(C)c(C(=O)Nc2ccc(OC3CCN(C)CC3)cc2)c1` | 11.09 | -9.465 |

9 of the entries, repeated:

Compound	Mtb growth Cornell	Mtb heat-shock
CC(C#N)CNC(=O)Nc1ccc(Br)cc1 (centres undefined)	36.33	-3.761
O=C(O)C(F)(F)F.O=C(c1cccnc1)N1CCC2(CC1)CCN(c1ccsc1)C2=O	-4.971	-9.697
CC(C)CC(NC(=O)CSCC(N)=O)c1cccs1 (centres undefined)	-	-19.96
COc1ccc2c(c1)OCC(CNC(=O)c1ccc3[nH]nnc3c1)C2 (centres undefined)	10.65	-2.248
Cc1csc2nc3n(c(=O)c12)CCN(Cc1c[nH]cn1)CC3.Cl	-9.915	-1.949
O=C(O)C(F)(F)F.[H][C@]12CN(CCN(C)C)C(=O)[C@@]1([H])CN(S(=O)(=O)c1cccs1)C2	-	1.72
O=C(CN1CCCCCC1)NCCSc1cnn[nH]1	-	47.79
COc1cc2nc(NCc3ccc(C)nc3)nc(N)c2cc1OC	50.73	12.99
CC(=O)Nc1nc2c(s1)C1(CCN(C)CC1)Nc1ccccc1S2	-15.56	-9.851